# Source: PubChem BioAssay AID540276 (National Center for Advancing Translational Sciences (NCATS), 2011)
# About 5,400 (1.8%) of roughly 300,000 compounds were called active. The inconclusive results got no clear call from the source; some entries with a clear call stand among them for comparison. Calls follow the shape of the full dose curve; tested in HEK293 cells. Potencies beside an inconclusive call are fits to weak or partial responses and may not hold up.
# Test: qHTS for inhibitors of binding or entry into cells for Marburg Virus
# Conditions: Marburg virus pseudotyped entry inhibition, cell reporter; series mostly up to 37.8 µM
# Potency is read from the fitted curve at half-maximal effect.
row,Structure (SMILES),Potency
1,CCOc1ccccc1C1NC(=O)NC(C)=C1C(=O)OC1CCCC1C (stereo not drawn),"inconclusive: 7.94 µM [inhibitor, partial curve, poor fit]"
2,CCOC(=O)C(Cc1ccc(O)c([N+](=O)[O-])c1)N1C(=O)c2ccccc2C1=O (stereo not drawn),"inconclusive: 0.112 µM [inhibitor, full curve, poor fit]"
3,COc1ccccc1Cn1c(C)nc2ccccc21,inactive
4,C=CCN1C(=O)NC(=O)/C(=C/c2ccoc2)C1=O,"inconclusive: 3.98 µM [activator, full curve, poor fit]"
5,COc1cccc2cc(C(=O)Nc3ccc(CC(=O)O)cc3)c(=O)oc12,active: 10 µM
6,O=C(CSc1nnc(-c2cccs2)n1Cc1ccco1)c1ccc2c(c1)OCO2,"inconclusive: 35.5 µM [inhibitor, partial curve, poor fit]"
7,O=C(Nc1ccccc1Cl)ON=C1c2ccccc2-c2ccccc21,"inconclusive: 32.6 µM [activator, single point]"
8,Cc1ccc(NC(=O)CSc2nc(-c3ccco3)cc(C(F)(F)F)n2)c(C)c1,"inconclusive: 0.562 µM [inhibitor, full curve, poor fit]"
9,Nc1nc(SCC(=O)Nc2cccc(S(=O)(=O)N3CCCCCC3)c2)n[nH]1,"inconclusive: 35.5 µM [inhibitor, single point]"
10,Cn1c(=O)c2[nH]c(CCCCCc3nc4ccccc4[nH]3)nc2n(C)c1=O,"inconclusive: 35.5 µM [inhibitor, single point]"
11,NC(=O)c1nsc(C(=O)N(c2ccccc2F)C(C(=O)NCc2ccc(F)cc2)c2ccc(O)cc2)c1N (stereo not drawn),"inconclusive: 1.12 µM [inhibitor, full curve, poor fit]"
12,Cc1cc(N2CCN(C(=O)c3ccco3)CC2)n2nc(C)c(-c3ccc(Cl)cc3)c2n1,inactive
13,CCNC(=S)NNC(=O)c1csc(C(C)C)c1,"inconclusive: 0.206 µM [activator, full curve, poor fit]"
14,O=S(=O)(Nc1nc(-c2ccccc2)cs1)c1cc(Cl)ccc1Cl,inactive
15,O=C(O)c1cccc(NC(=O)C2CCCO2)c1 (stereo not drawn),inactive
16,CCc1ccc(C(=O)CN2CCSC2=N)cc1,"inconclusive: 29.1 µM [inhibitor, single point]"
17,NCCSC1CC(=O)N(c2ccc(Cl)c(Cl)c2)C1=O (stereo not drawn),"inconclusive: 15.8 µM [activator, single point]"
18,COc1ccc(CNC(=O)C2Cc3cc(S(=O)(=O)N4CCCC4)ccc3N2C(C)=O)c(OC)c1 (stereo not drawn),inactive
19,COc1ccc(C)cc1CN(C)c1ccc(S(=O)(=O)N2CCN(C)CC2)cn1,inactive
20,CNC(=O)c1ccsc1NC(=O)c1ccc(S(=O)(=O)N2CCCc3ccccc32)cc1,"inconclusive: 20.6 µM [inhibitor, single point]"
21,CC(C)c1cc(NCc2ccccn2)n2c(nc3ccccc32)c1C#N,"inconclusive: 3.16 µM [inhibitor, single point]"
22,CCOC(=O)C(O)(c1ccc(NC(=S)NC(=O)c2ccc(Cl)cc2Cl)cc1)C(F)(F)F (stereo not drawn),"inconclusive: 29.1 µM [inhibitor, single point]"

# Entries shown so far containing a CF3 group, in the order listed:
row,Structure (SMILES),Potency
8,Cc1ccc(NC(=O)CSc2nc(-c3ccco3)cc(C(F)(F)F)n2)c(C)c1,"inconclusive: 0.562 µM [inhibitor, full curve, poor fit]"
22,CCOC(=O)C(O)(c1ccc(NC(=S)NC(=O)c2ccc(Cl)cc2Cl)cc1)C(F)(F)F (stereo not drawn),"inconclusive: 29.1 µM [inhibitor, single point]"

# The list continues:

row,Structure (SMILES),Potency
1,O=c1[nH][nH]c(C(F)(F)F)c1C=Nc1ccc(Cl)cc1,"inconclusive: 5.8 µM [activator, partial curve, poor fit]"
2,COc1ccc(CN2C(=O)NC(=O)/C(=C\c3cccc(OC)c3OC)C2=O)cc1,"inconclusive: 1.58 µM [activator, partial curve, poor fit]"
3,CCCCC1CCC(C(=O)N2CC(=O)Nc3ccc(C)cc3C2c2ccc(F)cc2)CC1 (stereo not drawn),"inconclusive: 35.5 µM [inhibitor, single point]"
4,O=C(C(=O)N1CCOCC1)c1cn(CCCOc2ccccc2)c2ccccc12,"inconclusive: 4.47 µM [inhibitor, full curve]"
5,O=C(Nc1ccc(Br)cc1)c1csc(-c2ccncc2)n1,"inconclusive: 11.2 µM [inhibitor, partial curve]"
6,N#CC(C#N)=Cc1ccc(N2CCCC2)cc1,inactive
7,Cc1cc(C(=O)NNC(=S)Nc2ccccc2C)cs1,"inconclusive: 0.316 µM [activator, full curve]"
8,O=C(Cc1csc(Nc2nc(=S)[nH]c3ccccc23)n1)NCCCN1CCN(c2cccc(Cl)c2)CC1,"inconclusive: 15.8 µM [inhibitor, single point]"
9,COc1ccc(OC)c(S(=O)(=O)N2CCCCC2C(=O)N2CCN(c3ccccn3)CC2)c1 (stereo not drawn),"inconclusive: 17.8 µM [inhibitor, partial curve]"
10,CCOC(=O)C1C(=O)C=C(c2ccccc2)CC1c1ccccc1 (stereo not drawn),"inconclusive: 35.5 µM [inhibitor, single point]"
11,COc1ccccc1S(=O)(=O)Cc1ccc(C(=O)NC2CCCCC2)o1,inactive
12,CC(=O)Nc1ccc(NC(=O)C2CCN(C(=O)c3ccc([N+](=O)[O-])cc3)CC2)cc1,"inconclusive: 35.5 µM [activator, single point]"
13,CCOC(=O)NC(=O)COC(=O)c1ccc(O)cc1,inactive
14,CCOC(=O)/C=C/C(=O)OCC(=O)Nc1cccc(Br)c1,inactive
15,N=c1c(C(=O)NC2CCCCC2)cc2c(=O)n3ccccc3nc2n1Cc1ccco1,"inconclusive: 5.62 µM [inhibitor, partial curve]"
16,CC(=O)c1cccc(NC(=S)NCCCCc2ccccc2)c1,inactive
17,Cc1ccc(CN2CCSc3ccc(C(=O)NC4CCN(Cc5ccccc5)CC4)cc32)cc1,"inconclusive: 1 µM [inhibitor, full curve, poor fit]"
18,CN1CCN(c2nc(C#N)cc(-c3ccccc3)n2)CC1,inactive
19,c1coc(-c2nc(-c3ccco3)c(-c3ccco3)nc2-c2ccco2)c1,inactive
20,CCOc1ccc(/C(O)=C2/C(=O)C(=O)N(CCN(C)C)C2c2ccccc2)cc1Cl (stereo not drawn),"inconclusive: 35.5 µM [activator, partial curve, poor fit]"
21,CCN(C(=O)CCc1nc(-c2ccc(C)cc2)no1)c1cccc(C(F)(F)F)c1,"inconclusive: 12.6 µM [inhibitor, partial curve, poor fit]"
